# Reference: paper PMC7819943, “Rice protein-binding microarrays: a tool to detect cis-acting elements near promoter regions in rice”
# This is one part of the list.
# Target: T1, OsSMF1 (Oryza sativa, UniProt Q6ZLB0 1-436)
# T1 sequence: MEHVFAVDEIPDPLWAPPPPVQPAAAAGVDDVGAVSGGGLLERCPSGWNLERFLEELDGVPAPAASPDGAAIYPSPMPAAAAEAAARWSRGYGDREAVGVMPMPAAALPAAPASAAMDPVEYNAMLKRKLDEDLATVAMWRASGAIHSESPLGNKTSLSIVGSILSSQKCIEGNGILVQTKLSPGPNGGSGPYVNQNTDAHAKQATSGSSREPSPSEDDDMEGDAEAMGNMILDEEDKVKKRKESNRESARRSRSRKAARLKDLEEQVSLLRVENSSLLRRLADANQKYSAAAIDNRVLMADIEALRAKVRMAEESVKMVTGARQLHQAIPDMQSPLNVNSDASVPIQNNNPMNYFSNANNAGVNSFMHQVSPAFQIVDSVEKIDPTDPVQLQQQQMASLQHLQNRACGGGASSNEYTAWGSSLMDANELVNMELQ
# Experiment: protein-binding microarray (RPBM); PBS, 2% BSA, 51.3 ng/ul salmon testes DNA, 50 uM zinc acetate, 200 nM TF, 25 C, 1 h; high values mean tight binding
# Conditions: protein: recombinant; tags: N-terminal polyhistidine and DsRed monomer fusion (pET32a); chain copies: 2; label: CyDye5-dUTP incorporated in the synthesized complementary strand; 3' TTTTT single-stranded linker to array surface; dsDNA, one strand shown
# How it was run: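 Using Ni–NTA, transcription factors fused N-terminally to polyhistidine and DsRed were purified after expression in E. coli BL21-CodonPlus. These were incubated at 200 nM with a blocked, double-stranded custom Agilent array for 1 h at 25 °C in a buffer containing 50 µM zinc acetate, and the array was washed. The binding signal is per-feature fluorescence intensity (arbitrary units) on an Axon 4000B scanner.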
row,Sequence,binding signal
1,GATTAGACCCGCGGGCGCGGTGAGTTGGACGTGTGGTCCTCGGAGTCACCTAGTGCAG,3580 fluorescence intensity (a.u.)
2,TGGGTCCCACGCAATAGTGGACCTGATGAATTGCAGGATTCGGAGTCACCTAGTGCAG,41100 fluorescence intensity (a.u.)
3,CCCTCGAGCTTTTAGCCCCGTGACGTCGCAGTCCTCCAAGCGGAGTCACCTAGTGCAG,9630 fluorescence intensity (a.u.)
4,AAATACGTCTCACTAACTGAAGTACGTGTAAATTGAGCCCCGGAGTCACCTAGTGCAG,3510 fluorescence intensity (a.u.)
5,CCTCCTCCAAGTCTGACCGTGCGCCGCGCGTGTCGTACGTCGGAGTCACCTAGTGCAG,3320 fluorescence intensity (a.u.)
6,AAAGGCCTACAAAGTTTGCGTTCTTGAGAGAAAGAGGGTGCGGAGTCACCTAGTGCAG,4230 fluorescence intensity (a.u.)
7,AAGAACCGGGCGGCCGATCCGGTGGCCTCGCAGGAGGCGACGGAGTCACCTAGTGCAG,28500 fluorescence intensity (a.u.)
8,ACTGGCGGTTGCCCTCGCACATGTCGTGGTAGTAGCTGTGCGGAGTCACCTAGTGCAG,3340 fluorescence intensity (a.u.)
9,CCACTCCGTACCGGCCGCGCCATGGATTCCACGCGGTGGCCGGAGTCACCTAGTGCAG,3470 fluorescence intensity (a.u.)
10,TCGTGCACAGGTACACTGACCCAAGACCATTGCAACGTGCCGGAGTCACCTAGTGCAG,3330 fluorescence intensity (a.u.)
11,TACTTCAAACGTGTCTCCGTATATCCGATGTGACACGTCACGGAGTCACCTAGTGCAG,20400 fluorescence intensity (a.u.)
12,AATGCCTCTCCTCTCGCCTCGTCACTTTGAGCTCAGTAGACGGAGTCACCTAGTGCAG,3220 fluorescence intensity (a.u.)
13,GCTCGATTTCGTCGTGTGTTCTTCTCCGTCTCCGATGACTCGGAGTCACCTAGTGCAG,3240 fluorescence intensity (a.u.)
14,GATAGTGTGCAAACCACGGCGCACACTCTGGCCGGTCGTCCGGAGTCACCTAGTGCAG,3340 fluorescence intensity (a.u.)
15,AGGCAGACGTTCAGCAGCCGCGTCGGCAGCAGCCACCGCCCGGAGTCACCTAGTGCAG,3360 fluorescence intensity (a.u.)
16,CTCATCATCTCTCTCACAATTGCCAACGCCACTGCATGCCCGGAGTCACCTAGTGCAG,4400 fluorescence intensity (a.u.)
17,TAAAACATCAAATATGTGTCACCACTATAGGCCTTTTCCCCGGAGTCACCTAGTGCAG,4670 fluorescence intensity (a.u.)
18,AAAGGATTCATGTCATGCACACGTAGTAATCATAATTCAGCGGAGTCACCTAGTGCAG,3440 fluorescence intensity (a.u.)
19,ATCCATCCAAATTAATCATTAATCAACAAGAGATGAGGAACGGAGTCACCTAGTGCAG,23900 fluorescence intensity (a.u.)
20,ACAACTCGCTATGACTCACTCACCAATTACCATTCTTAACCGGAGTCACCTAGTGCAG,9980 fluorescence intensity (a.u.)
21,ACACAACACCACGCACGCCCACCACCGCTAAACAGACAGTCGGAGTCACCTAGTGCAG,4550 fluorescence intensity (a.u.)
22,CGTCACCCGCGTGGCCACGTCGATGGCACCGACGTCGTCGCGGAGTCACCTAGTGCAG,6860 fluorescence intensity (a.u.)
23,CTCGATGCTGGATGACAGGATCAAGCCGGACGAGTTCACCCGGAGTCACCTAGTGCAG,5360 fluorescence intensity (a.u.)
24,ACCATCCATCCAGCCAGCCAGCCAGCCACATCATATGTCCCGGAGTCACCTAGTGCAG,7730 fluorescence intensity (a.u.)
25,TCCCGCGACGTCGTCGTCATCGACTACTCCATCGCGGCCGCGGAGTCACCTAGTGCAG,5000 fluorescence intensity (a.u.)
26,CATTTGCTTAATTTCCACATGAGATGCTAAAGAAGTTTTACGGAGTCACCTAGTGCAG,3500 fluorescence intensity (a.u.)
27,CTGACTATAATGCCACGTCAGCCAACACAACTATTCCTATCGGAGTCACCTAGTGCAG,22600 fluorescence intensity (a.u.)

row,Sequence,binding signal
1,GCAAAATGTCAGGCCGACACAACCCGTCATACTCTTCATGCGGAGTCACCTAGTGCAG,3480 fluorescence intensity (a.u.)
2,AGTAGGCTGCCATGTAGATGTCACGTCAACGAAATCCGCTCGGAGTCACCTAGTGCAG,5220 fluorescence intensity (a.u.)
3,TCAATGCTATGTTCTGTAGTGAGTCATGGTCAGTGATAGACGGAGTCACCTAGTGCAG,8320 fluorescence intensity (a.u.)
4,ACCAAACAAGCTGTTAATTAGTGACGCAAACCATCAACCACGGAGTCACCTAGTGCAG,4470 fluorescence intensity (a.u.)
5,GGGCCTCCAGCGCTCCCCGCCGCCGGCGCTCCAGCTCCCGCGGAGTCACCTAGTGCAG,3670 fluorescence intensity (a.u.)
6,CGCATCCCGACCAAACTACCCCACTACAAGACAAACCAGCCGGAGTCACCTAGTGCAG,3780 fluorescence intensity (a.u.)
7,CACTTGATCCGATGGTTGCAAGATGTTGATGACGTGGCTTCGGAGTCACCTAGTGCAG,14900 fluorescence intensity (a.u.)
8,CCCAAGTCACCACCTCACCTCACCACCACCCACCTCGTCTCGGAGTCACCTAGTGCAG,5600 fluorescence intensity (a.u.)
9,CTCTTTATAACTTGGTTACTTCCAGACTGATGTCATTTTCCGGAGTCACCTAGTGCAG,36600 fluorescence intensity (a.u.)
10,CCCAACCTCCCTCCCTCGCGTGCGCAATGACCTACACAACCGGAGTCACCTAGTGCAG,4180 fluorescence intensity (a.u.)
11,CTAGCCCTTGCTTCATTTTACGTGTTGGGAGGGAAGGGGTCGGAGTCACCTAGTGCAG,4200 fluorescence intensity (a.u.)
12,GTAATAATCTCTGACCAAATCGCCAAATCATCCGCCCAGACGGAGTCACCTAGTGCAG,3220 fluorescence intensity (a.u.)
13,CTGAATCCATAATCCTAATCGATCATCATCACTTTTGCTGCGGAGTCACCTAGTGCAG,4050 fluorescence intensity (a.u.)
14,CCCGATGTACGAGGCGCAGGCTGCATTGACCACACGTCATCGGAGTCACCTAGTGCAG,10700 fluorescence intensity (a.u.)
15,ATTGCGGGGCCCAGGTGCGTCCTCCCGAATCCTGATCCAACGGAGTCACCTAGTGCAG,17300 fluorescence intensity (a.u.)
16,CGCTCATTTCCTAGGTGCGGGCAGCAGAGTCAGCTGGTGGCGGAGTCACCTAGTGCAG,3530 fluorescence intensity (a.u.)
17,CCAGCAAGAGATCCATCAAGCCGTCGCGATGACGACGAGGCGGAGTCACCTAGTGCAG,3850 fluorescence intensity (a.u.)
18,GTGACATCTAAGTGCCGCGTGTTCTCCTCTTCCTCTTCCCCGGAGTCACCTAGTGCAG,4550 fluorescence intensity (a.u.)
19,ACAAGTAATTACTCAGCTGCCCCTATTAAACCCCATCTTACGGAGTCACCTAGTGCAG,3190 fluorescence intensity (a.u.)
20,ACCTCCTGTTTGTTTATGGTTTCCCTAAATTTGCAAACGCCGGAGTCACCTAGTGCAG,3170 fluorescence intensity (a.u.)
21,TCCTTGTGTTTTGATGGAATGGCCTCATCTACTTGTTTGGCGGAGTCACCTAGTGCAG,3380 fluorescence intensity (a.u.)
22,ATCCCCTGGCACGACGCTGACAGGTGGGCCCCAGTTGCGGCGGAGTCACCTAGTGCAG,5010 fluorescence intensity (a.u.)
23,GGGAGACAGTCCAGTAGGGAAGGCAACGGTTGCAGCAAAGCGGAGTCACCTAGTGCAG,28600 fluorescence intensity (a.u.)
24,AACGATGCTGAAAATCTGATGCGGTAGACTGCTGCTGTAGCGGAGTCACCTAGTGCAG,24800 fluorescence intensity (a.u.)
25,GCTCCTCCCCACAGCTGTCGTCGCGTCAACCCATTATCCTCGGAGTCACCTAGTGCAG,3570 fluorescence intensity (a.u.)
26,GCGGCGTTGCGGATGGGGACGGGGACGGGGACGGCGGCGACGGAGTCACCTAGTGCAG,3170 fluorescence intensity (a.u.)
27,CCTTTCCAATGCCGATATTACCAAATTTGGTTGTTAACACCGGAGTCACCTAGTGCAG,3230 fluorescence intensity (a.u.)

# Copied from the entries so far for reference:
row,Sequence,binding signal
7,CACTTGATCCGATGGTTGCAAGATGTTGATGACGTGGCTTCGGAGTCACCTAGTGCAG,14900 fluorescence intensity (a.u.)
8,CCCAAGTCACCACCTCACCTCACCACCACCCACCTCGTCTCGGAGTCACCTAGTGCAG,5600 fluorescence intensity (a.u.)
9,CTCTTTATAACTTGGTTACTTCCAGACTGATGTCATTTTCCGGAGTCACCTAGTGCAG,36600 fluorescence intensity (a.u.)
10,CCCAACCTCCCTCCCTCGCGTGCGCAATGACCTACACAACCGGAGTCACCTAGTGCAG,4180 fluorescence intensity (a.u.)
11,CTAGCCCTTGCTTCATTTTACGTGTTGGGAGGGAAGGGGTCGGAGTCACCTAGTGCAG,4200 fluorescence intensity (a.u.)
12,GTAATAATCTCTGACCAAATCGCCAAATCATCCGCCCAGACGGAGTCACCTAGTGCAG,3220 fluorescence intensity (a.u.)
13,CTGAATCCATAATCCTAATCGATCATCATCACTTTTGCTGCGGAGTCACCTAGTGCAG,4050 fluorescence intensity (a.u.)
14,CCCGATGTACGAGGCGCAGGCTGCATTGACCACACGTCATCGGAGTCACCTAGTGCAG,10700 fluorescence intensity (a.u.)
15,ATTGCGGGGCCCAGGTGCGTCCTCCCGAATCCTGATCCAACGGAGTCACCTAGTGCAG,17300 fluorescence intensity (a.u.)
16,CGCTCATTTCCTAGGTGCGGGCAGCAGAGTCAGCTGGTGGCGGAGTCACCTAGTGCAG,3530 fluorescence intensity (a.u.)
17,CCAGCAAGAGATCCATCAAGCCGTCGCGATGACGACGAGGCGGAGTCACCTAGTGCAG,3850 fluorescence intensity (a.u.)
18,GTGACATCTAAGTGCCGCGTGTTCTCCTCTTCCTCTTCCCCGGAGTCACCTAGTGCAG,4550 fluorescence intensity (a.u.)
19,ACAAGTAATTACTCAGCTGCCCCTATTAAACCCCATCTTACGGAGTCACCTAGTGCAG,3190 fluorescence intensity (a.u.)
20,ACCTCCTGTTTGTTTATGGTTTCCCTAAATTTGCAAACGCCGGAGTCACCTAGTGCAG,3170 fluorescence intensity (a.u.)
21,TCCTTGTGTTTTGATGGAATGGCCTCATCTACTTGTTTGGCGGAGTCACCTAGTGCAG,3380 fluorescence intensity (a.u.)
22,ATCCCCTGGCACGACGCTGACAGGTGGGCCCCAGTTGCGGCGGAGTCACCTAGTGCAG,5010 fluorescence intensity (a.u.)
23,GGGAGACAGTCCAGTAGGGAAGGCAACGGTTGCAGCAAAGCGGAGTCACCTAGTGCAG,28600 fluorescence intensity (a.u.)
